{"source": "paper PMC7819943", "about": "“Rice protein-binding microarrays: a tool to detect cis-acting elements near promoter regions in rice”", "note": "The other results are listed elsewhere or left out.", "data": [{"molecular_target": "T1, OsSMF1 (Oryza sativa, UniProt Q6ZLB0 1-436)", "T1 sequence": "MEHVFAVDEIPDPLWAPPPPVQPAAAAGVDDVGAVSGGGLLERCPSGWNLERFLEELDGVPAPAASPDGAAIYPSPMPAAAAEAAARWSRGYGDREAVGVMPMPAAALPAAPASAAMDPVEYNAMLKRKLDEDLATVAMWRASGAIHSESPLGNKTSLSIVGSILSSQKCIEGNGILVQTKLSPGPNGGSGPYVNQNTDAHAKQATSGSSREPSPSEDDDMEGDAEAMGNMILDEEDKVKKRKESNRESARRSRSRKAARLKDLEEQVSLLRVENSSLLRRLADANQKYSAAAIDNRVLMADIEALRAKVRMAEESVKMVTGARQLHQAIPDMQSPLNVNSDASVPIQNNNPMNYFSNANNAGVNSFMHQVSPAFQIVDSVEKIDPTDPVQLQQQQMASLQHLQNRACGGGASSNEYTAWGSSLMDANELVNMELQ", "assay": "protein-binding microarray (RPBM); PBS, 2% BSA, 51.3 ng/ul salmon testes DNA, 50 uM zinc acetate, 200 nM TF, 25 C, 1 h; high values mean tight binding", "conditions": "protein: recombinant; tags: N-terminal polyhistidine and DsRed monomer fusion (pET32a); chain copies: 2; label: CyDye5-dUTP incorporated in the synthesized complementary strand; 3' TTTTT single-stranded linker to array surface; dsDNA, one strand shown", "procedure,_shortened": "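In PBS with 2% BSA, salmon testes DNA and 50 µM zinc acetate, 200 nM protein was incubated on a custom Agilent array at 25 °C for 1 h and then washed off. The array had been made double-stranded by primer extension with Cy5-dUTP and blocked with 2% BSA. The proteins were transcription factors fused N-terminally to polyhistidine and DsRed, expressed in E. coli BL21-CodonPlus and purified on Ni–NTA. The binding signal is per-feature fluorescence intensity (arbitrary units) from an Axon 4000B scanner.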", "values": [{"sequence": "AACGCACATTCAGCGCCACGCTATTTGGTGCTGAGGTGTCCGGAGTCACCTAGTGCAG", "binding signal": "8500 fluorescence intensity (a.u.)"}, {"sequence": "TGCGTGTTCTCTCTGTCACTAACTCACTGGAACAGATCCACGGAGTCACCTAGTGCAG", "binding signal": "3940 fluorescence intensity (a.u.)"}, {"sequence": "CCGATCTCCACCACCACCACCACCACGCGGGCGCGCGCACCGGAGTCACCTAGTGCAG", "binding signal": "4580 fluorescence intensity (a.u.)"}, {"sequence": "AAGCTCGTCCGCCACCGCGTCATCTCACAGGTTTACTATACGGAGTCACCTAGTGCAG", "binding signal": "3370 fluorescence intensity (a.u.)"}, {"sequence": "CCTTCTCTCTCGCACCCGCAAAAGCTCAAACCCCTACACTCGGAGTCACCTAGTGCAG", "binding signal": "3220 fluorescence intensity (a.u.)"}, {"sequence": "AGAAACCGTGGGTACTAGTTATTAAAATTCTTCCGTTGCACGGAGTCACCTAGTGCAG", "binding signal": "15000 fluorescence intensity (a.u.)"}, {"sequence": "CCGCCGCCGCGTGCGCTGGCCACGCCGCCTCCGGCGACCTCGGAGTCACCTAGTGCAG", "binding signal": "3970 fluorescence intensity (a.u.)"}, {"sequence": "AAACTATATTCATCAGTGGTACCCACAAATATTAGACACTCGGAGTCACCTAGTGCAG", "binding signal": "31600 fluorescence intensity (a.u.)"}, {"sequence": "TATCCCACACATCCTAGTAAGTAAATCAATTTAGTTATATCGGAGTCACCTAGTGCAG", "binding signal": "3440 fluorescence intensity (a.u.)"}, {"sequence": "GGAGTAGTTTGGTTGGTTCGTTAAGGGACAGAGGGAGCTGCGGAGTCACCTAGTGCAG", "binding signal": "3300 fluorescence intensity (a.u.)"}, {"sequence": "GCTTAGATGTTTGATGTTTCGTTACATAAGATATAGTGGGCGGAGTCACCTAGTGCAG", "binding signal": "3630 fluorescence intensity (a.u.)"}, {"sequence": "ATGCTTGTTTTGTTCGGTGTTCTTATAGAATGTGTAAAACCGGAGTCACCTAGTGCAG", "binding signal": "16600 fluorescence intensity (a.u.)"}, {"sequence": "ACCCGTGCTGACTCAACTTGTTGACCAGAAACCACCCCACCGGAGTCACCTAGTGCAG", "binding signal": "8820 fluorescence intensity (a.u.)"}, {"sequence": "ACCCTCCACGTGGCGCCATGCGATTCCAGCGTTAGACCCCCGGAGTCACCTAGTGCAG", "binding signal": "17500 fluorescence intensity (a.u.)"}, {"sequence": "AAATTCGTTCTACAACTAAACAGGTTGCTTCAGAGTGCAACGGAGTCACCTAGTGCAG", "binding signal": "30800 fluorescence intensity (a.u.)"}, {"sequence": "ATTTTAGTGCAATCAGTGACGTGTTGCTGGTGAGGATGTGCGGAGTCACCTAGTGCAG", "binding signal": "3560 fluorescence intensity (a.u.)"}, {"sequence": "CACGCCCGCCGCGCGGCCCACCTCCGCCTTTATGACCGATCGGAGTCACCTAGTGCAG", "binding signal": "3250 fluorescence intensity (a.u.)"}, {"sequence": "GCTTTGACTACGCCCCGGAACGGAACGCATGCGTGCACCGCGGAGTCACCTAGTGCAG", "binding signal": "3290 fluorescence intensity (a.u.)"}, {"sequence": "TTGCATGGTCCAGTGCACCATGTCCACATCAACCAAGCAGCGGAGTCACCTAGTGCAG", "binding signal": "3280 fluorescence intensity (a.u.)"}, {"sequence": "CACGGAATTCAAACACACTGAGACCAATCAAACAGCCATGCGGAGTCACCTAGTGCAG", "binding signal": "15800 fluorescence intensity (a.u.)"}, {"sequence": "GAGGGTTTCCCACCCGCGAGAAGTCGGCGCTCCCCTCTTCCGGAGTCACCTAGTGCAG", "binding signal": "3150 fluorescence intensity (a.u.)"}, {"sequence": "TCCTATCGATCCCGATGACGTAGGTCCCATCCATTGATTTCGGAGTCACCTAGTGCAG", "binding signal": "8590 fluorescence intensity (a.u.)"}, {"sequence": "CGAGCGTGCCGTCATCGTGCATCCATTGGTGCTTCTCCCGCGGAGTCACCTAGTGCAG", "binding signal": "3910 fluorescence intensity (a.u.)"}, {"sequence": "AATCATGTGCATGATTCATCAACAGCTAATGACAAGGATTCGGAGTCACCTAGTGCAG", "binding signal": "4160 fluorescence intensity (a.u.)"}, {"sequence": "CGCCGCTGCGGCCGAACCAGTACGTGGAGGTGTACCTGTTCGGAGTCACCTAGTGCAG", "binding signal": "3720 fluorescence intensity (a.u.)"}, {"sequence": "AATCAAACTTTCAATTTTAGCGTGAACTAAACACACCCTTCGGAGTCACCTAGTGCAG", "binding signal": "3680 fluorescence intensity (a.u.)"}, {"sequence": "ATAATGAACAATTTCTTTCCAAGCTACATGTAGACCAGAGCGGAGTCACCTAGTGCAG", "binding signal": "40100 fluorescence intensity (a.u.)"}, {"sequence": "AGTTTTACTGTGCATTGCTTTGCTGCTCTGTGTTTTGTGGCGGAGTCACCTAGTGCAG", "binding signal": "3870 fluorescence intensity (a.u.)"}, {"sequence": "AGTACACTTTTGCAGTCCAAGTGTCCAACTAATCCAGCTGCGGAGTCACCTAGTGCAG", "binding signal": "3270 fluorescence intensity (a.u.)"}, {"sequence": "AATACTGTCTAACTCAGGAGTGAATCATGACTCCATGCAACGGAGTCACCTAGTGCAG", "binding signal": "3520 fluorescence intensity (a.u.)"}, {"sequence": "GACCCGTCGTTGGGTTACGTGGACTTTCTCCTATTTTGAACGGAGTCACCTAGTGCAG", "binding signal": "6890 fluorescence intensity (a.u.)"}, {"sequence": "GAGACGAGGAGGAAGAAGAAGCGAGCGAAGCTTGTGTTGGCGGAGTCACCTAGTGCAG", "binding signal": "26500 fluorescence intensity (a.u.)"}, {"sequence": "AGAACAAAGCAAGCATGGAGAGATCAGCACTAACAATGGCCGGAGTCACCTAGTGCAG", "binding signal": "3240 fluorescence intensity (a.u.)"}, {"sequence": "TGGCGATGGTTCGGCCACCGTCACCCTTCCCCTGCCCTTACGGAGTCACCTAGTGCAG", "binding signal": "3230 fluorescence intensity (a.u.)"}, {"sequence": "GAGGAGGTCGAAGATGGCAGTGACGATGACGGTGGGGTTGCGGAGTCACCTAGTGCAG", "binding signal": "4140 fluorescence intensity (a.u.)"}, {"sequence": "TTTAGAGGACCGACCACCGCCACGTGGCAGCACGGCCGATCGGAGTCACCTAGTGCAG", "binding signal": "12000 fluorescence intensity (a.u.)"}, {"sequence": "TGGGATTGAGACCTTGCGTGAGGCTCATTGTTGTTGGGCCCGGAGTCACCTAGTGCAG", "binding signal": "6890 fluorescence intensity (a.u.)"}, {"sequence": "TTTGATTCGAAGCGTCAGCTGCTGCTGATTTCTGAGTTTTCGGAGTCACCTAGTGCAG", "binding signal": "4190 fluorescence intensity (a.u.)"}, {"sequence": "AAGCACTGTCCGTGCGACGTCACCTCGCCCACGCAAGACGCGGAGTCACCTAGTGCAG", "binding signal": "7620 fluorescence intensity (a.u.)"}, {"sequence": "CCGGGCCATCGCCAGCTCGGCGCCACGTGGCACTCCTCCCCGGAGTCACCTAGTGCAG", "binding signal": "24600 fluorescence intensity (a.u.)"}, {"sequence": "ACAGACAGACAGCTCCAACCAACACTTGCACGCTCAATCGCGGAGTCACCTAGTGCAG", "binding signal": "3400 fluorescence intensity (a.u.)"}, {"sequence": "CAAACAAAACAATAAGACGACCGAAAAGCCTTGCAAGCAACGGAGTCACCTAGTGCAG", "binding signal": "26000 fluorescence intensity (a.u.)"}]}]}
